Results published in PMC3617406 (Molecular pharmaceutics, 2013).

Target: T1, human ASBT (Homo sapiens, UniProt Q12908)
T1 sequence (Q12908 1-348): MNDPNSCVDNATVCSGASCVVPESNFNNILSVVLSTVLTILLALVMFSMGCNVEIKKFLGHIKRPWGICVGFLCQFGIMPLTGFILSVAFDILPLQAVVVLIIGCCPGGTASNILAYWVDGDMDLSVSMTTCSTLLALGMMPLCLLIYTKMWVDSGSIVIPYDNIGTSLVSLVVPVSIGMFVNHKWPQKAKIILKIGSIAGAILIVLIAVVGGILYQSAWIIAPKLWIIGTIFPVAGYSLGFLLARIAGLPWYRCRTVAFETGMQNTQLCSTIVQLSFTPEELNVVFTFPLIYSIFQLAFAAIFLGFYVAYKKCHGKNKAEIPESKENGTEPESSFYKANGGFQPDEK
Assay type: cell-based
Details: read-out: Estimated Ki for ASBT

COC(=O)C1=C(C)NC(C)=C(C(=O)OC)C1c1ccccc1[N+](=O)[O-] [Nifedipine]
potency estimated from few doses: 89.9 ± 34 µM
